Source: PubChem BioAssay AID1224831 (NIAID, 2016)
Purpose: 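Confirming genome-wide hits on LPS-triggered TNF-alpha induction with independent siRNA sequences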 (follow-up of hits). Cell system: human THP-1 B5 monocytic leukaemia cells carrying a TNF promoter luciferase reporter, made macrophage-like with PMA. Knock-down reagent: single siRNA against human genes, 50 nM. Timing: about 68 h of knock-down, then 4 h LPS. Treatment: LPS (Salmonella minnesota, TLR-grade) at 10 ng/ml for 4 h; PMA 5 ng/ml present during knock-down. Measured: 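TNF promoter reporter read as dual luciferase ratio after 4 h LPS, normalised per plate to its median, given as replicate mean robust z-score per siRNA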. Reading the numbers: TNF reporter z-score: higher = stronger LPS-induced TNF reporter signal; z-score, median over gene's siRNAs: higher = stronger TNF reporter signal across the gene's siRNAs. Hit rule: 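Active when the replicate mean z-score is about -1 or lower, or about 1.5 or higher; lowered and raised TNF reporter signal both count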. Meaning of the calls: active = changed TNF reporter (either direction); inactive = little change.
The whole screen tested about 3,500 reagents; below is an unselected part. 731 of all reagents (21%) count as active. 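Active means either lowered or raised reporter signal; the gene-median score did not drive the per-siRNA calls.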 A number with no mark means an inactive call. The numbers tell different reagents against one gene apart.

HOXA6 (homeobox A6) #1 → TNF reporter z-score, replicate mean: 0.19; z-score, median over gene's siRNAs: 0.52
HOXA6 (homeobox A6) #2 → TNF reporter z-score, replicate mean: 2.67 (active); z-score, median over gene's siRNAs: 0.52
HOXA6 (homeobox A6) #3 → TNF reporter z-score, replicate mean: 2.39 (active); z-score, median over gene's siRNAs: 0.52
HOXA6 (homeobox A6) #4 → TNF reporter z-score, replicate mean: -1.26 (active); z-score, median over gene's siRNAs: 0.52
HOXA6 (homeobox A6) #5 → TNF reporter z-score, replicate mean: 0.85; z-score, median over gene's siRNAs: 0.52
HOXA6 (homeobox A6) #6 → TNF reporter z-score, replicate mean: -1.35 (active); z-score, median over gene's siRNAs: 0.52
CFAP161 (cilia and flagella associated protein 161) #1 → TNF reporter z-score, replicate mean: 0.56; z-score, median over gene's siRNAs: -0.08
CFAP161 (cilia and flagella associated protein 161) #2 → TNF reporter z-score, replicate mean: -0.17; z-score, median over gene's siRNAs: -0.08
CFAP161 (cilia and flagella associated protein 161) #3 → TNF reporter z-score, replicate mean: 0.01; z-score, median over gene's siRNAs: -0.08
CFAP161 (cilia and flagella associated protein 161) #4 → TNF reporter z-score, replicate mean: 0; z-score, median over gene's siRNAs: -0.08
CFAP161 (cilia and flagella associated protein 161) #5 → TNF reporter z-score, replicate mean: -0.3; z-score, median over gene's siRNAs: -0.08
CFAP161 (cilia and flagella associated protein 161) #6 → TNF reporter z-score, replicate mean: -0.16; z-score, median over gene's siRNAs: -0.08
IHO1 (interactor of HORMAD1 1) #1 → TNF reporter z-score, replicate mean: -0.38; z-score, median over gene's siRNAs: 0.61
IHO1 (interactor of HORMAD1 1) #2 → TNF reporter z-score, replicate mean: 0.33; z-score, median over gene's siRNAs: 0.61
IHO1 (interactor of HORMAD1 1) #3 → TNF reporter z-score, replicate mean: 0.99; z-score, median over gene's siRNAs: 0.61
IHO1 (interactor of HORMAD1 1) #4 → TNF reporter z-score, replicate mean: 0.89; z-score, median over gene's siRNAs: 0.61
IHO1 (interactor of HORMAD1 1) #5 → TNF reporter z-score, replicate mean: 0.99; z-score, median over gene's siRNAs: 0.61
IHO1 (interactor of HORMAD1 1) #6 → TNF reporter z-score, replicate mean: -1.8 (active); z-score, median over gene's siRNAs: 0.61
ZIK1 (zinc finger protein interacting with K protein 1) #1 → TNF reporter z-score, replicate mean: -0.74; z-score, median over gene's siRNAs: 0.3
ZIK1 (zinc finger protein interacting with K protein 1) #2 → TNF reporter z-score, replicate mean: 0.1; z-score, median over gene's siRNAs: 0.3
ZIK1 (zinc finger protein interacting with K protein 1) #3 → TNF reporter z-score, replicate mean: -0.62; z-score, median over gene's siRNAs: 0.3
ZIK1 (zinc finger protein interacting with K protein 1) #4 → TNF reporter z-score, replicate mean: 1.31; z-score, median over gene's siRNAs: 0.3
ZIK1 (zinc finger protein interacting with K protein 1) #5 → TNF reporter z-score, replicate mean: 1.12; z-score, median over gene's siRNAs: 0.3
ZIK1 (zinc finger protein interacting with K protein 1) #6 → TNF reporter z-score, replicate mean: 0.5; z-score, median over gene's siRNAs: 0.3
ENPP6 (ectonucleotide pyrophosphatase/phosphodiesterase 6) #1 → TNF reporter z-score, replicate mean: 0.58; z-score, median over gene's siRNAs: -0.135
ENPP6 (ectonucleotide pyrophosphatase/phosphodiesterase 6) #2 → TNF reporter z-score, replicate mean: -1.49 (active); z-score, median over gene's siRNAs: -0.135
ENPP6 (ectonucleotide pyrophosphatase/phosphodiesterase 6) #3 → TNF reporter z-score, replicate mean: -0.2; z-score, median over gene's siRNAs: -0.135
ENPP6 (ectonucleotide pyrophosphatase/phosphodiesterase 6) #4 → TNF reporter z-score, replicate mean: -0.07; z-score, median over gene's siRNAs: -0.135
ENPP6 (ectonucleotide pyrophosphatase/phosphodiesterase 6) #5 → TNF reporter z-score, replicate mean: 3.83 (active); z-score, median over gene's siRNAs: -0.135
ENPP6 (ectonucleotide pyrophosphatase/phosphodiesterase 6) #6 → TNF reporter z-score, replicate mean: -0.57; z-score, median over gene's siRNAs: -0.135
ANXA9 (annexin A9) #1 → TNF reporter z-score, replicate mean: 0.05; z-score, median over gene's siRNAs: 0.035
ANXA9 (annexin A9) #2 → TNF reporter z-score, replicate mean: 0.02; z-score, median over gene's siRNAs: 0.035
ANXA9 (annexin A9) #3 → TNF reporter z-score, replicate mean: -0.11; z-score, median over gene's siRNAs: 0.035
ANXA9 (annexin A9) #4 → TNF reporter z-score, replicate mean: 0.3; z-score, median over gene's siRNAs: 0.035
ANXA9 (annexin A9) #5 → TNF reporter z-score, replicate mean: -0.31; z-score, median over gene's siRNAs: 0.035
ANXA9 (annexin A9) #6 → TNF reporter z-score, replicate mean: 0.65; z-score, median over gene's siRNAs: 0.035
GPBAR1 (G protein-coupled bile acid receptor 1) #1 → TNF reporter z-score, replicate mean: 0.81; z-score, median over gene's siRNAs: -0.44
GPBAR1 (G protein-coupled bile acid receptor 1) #2 → TNF reporter z-score, replicate mean: -0.46; z-score, median over gene's siRNAs: -0.44
GPBAR1 (G protein-coupled bile acid receptor 1) #3 → TNF reporter z-score, replicate mean: 0.76; z-score, median over gene's siRNAs: -0.44
GPBAR1 (G protein-coupled bile acid receptor 1) #4 → TNF reporter z-score, replicate mean: -0.69; z-score, median over gene's siRNAs: -0.44
GPBAR1 (G protein-coupled bile acid receptor 1) #5 → TNF reporter z-score, replicate mean: -0.42; z-score, median over gene's siRNAs: -0.44
GPBAR1 (G protein-coupled bile acid receptor 1) #6 → TNF reporter z-score, replicate mean: -0.78; z-score, median over gene's siRNAs: -0.44

Ordered by “z-score, median over gene's siRNAs” (highest first): 4 of the entries above
ANXA9 (annexin A9) #6 → TNF reporter z-score, replicate mean: 0.65; z-score, median over gene's siRNAs: 0.035
GPBAR1 (G protein-coupled bile acid receptor 1) #1 → TNF reporter z-score, replicate mean: 0.81; z-score, median over gene's siRNAs: -0.44
GPBAR1 (G protein-coupled bile acid receptor 1) #2 → TNF reporter z-score, replicate mean: -0.46; z-score, median over gene's siRNAs: -0.44
GPBAR1 (G protein-coupled bile acid receptor 1) #3 → TNF reporter z-score, replicate mean: 0.76; z-score, median over gene's siRNAs: -0.44
